As a reminder, the AC50 is the midpoint of the concentration-response curve, whichever way the signal moves.

The structures appear in SMILES notation. The list shows a part of the results. Shown are side measurements of this screen, not its main read-out; they come without a call. Compounds called inactive in the main read-out are mostly missing here. Words in brackets tell the shape of the fitted curve; partial curves, single points and poor fits give uncertain potencies.

In PubChem BioAssay AID1487 (National Center for Advancing Translational Sciences (NCATS), 2009) one finds AC50 data, which are given here for 57 compounds.

The nature of the test: qHTS Assay for Modulators of Lamin A Splicing. The following applies: HeLa LMNA splicing GFP/RFP minigene ratio, 48 h. The procedure, abridged:
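S3 HeLa stable clones carrying a lamin A-EGFP splicing minigene plus DsRed2 were seeded at 600 cells/well in Opti-MEM with 2% FBS, pin-dosed and incubated 48 h at 37°C. Acumen cytometry (488 nm) gave the GFP/RFP total-intensity ratio.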
(In qHTS, concentration-response curves come from the screen itself.)

Where [1] appears, read: measured here: GFP splicing reporter channel.
Where [2] appears, read: measured here: RFP viability control channel.

With `Cn1c(=O)c2c(nc(N/N=C/c3ccc(OC(=O)c4ccco4)cc3)n2Cc2ccccc2Cl)n(C)c1=O`, the concentration at half-maximal activity (AC50) by setting is: under setting [1], 0.178 µM [rising, partial curve]; under setting [2], 2.82 µM [rising, partial curve].

As for `CCOc1cc(C(=O)Nc2ccc3c(c2)OCO3)ccc1OCCOc1ccccc1Cl`, the AC50 under setting [1] was 6.31 µM [rising, partial curve].

Take `O=C(Nc1ccc(OC(F)(F)F)cc1)c1ccc(-n2cncn2)nc1`: the AC50 reads like this: under setting [1], 15.8 µM [falling, partial curve, poor fit]; under setting [2], 14.1 µM [falling, partial curve, poor fit].

As for `CCCN1CCC2(CC1)C(C#N)=C(N)Oc1c2sc2nc(C)cc(C)c12`, the AC50 under setting [2] is 10 µM [rising, single point].

On to `CCOC(=O)c1ccc(Nc2c(CC)c(C)nc3ncnn23)cc1`, for which, under setting [2], the AC50 is 22.4 µM [rising, single point].

On to `O=C1c2ccccc2C(=O)N1CCCCSc1nnc(-c2ccc(OC(F)F)cc2)o1`, for which the half-maximal activity concentration (AC50) under setting [1] was 35.5 µM [rising, single point] and the AC50 under setting [2] is 35.5 µM [rising, single point].

`CCN(CC)c1ccc(/C=N/N=C(c2ccccc2)c2ccccc2)c(O)c1`: the AC50 under setting [2] is 3.98 µM [rising, single point].

For `O=C(Nc1cc(-c2ccccc2F)nn1-c1ccccc1)c1ccccc1Br`, the AC50 under setting [1] is 0.398 µM [rising, full curve].

As for `COc1ccc(/C=C/C2=NNC(=O)CC2)cc1`, under setting [2], the AC50 is 1 µM [falling, full curve].

As for `C=CCSc1nc2ccccc2c(=O)n1Cc1ccccc1`, the half-maximal activity concentration (AC50) runs as follows: under setting [1], 0.1 µM [rising, full curve]; under setting [2], 28.2 µM [rising, single point].

For the compound `O=C(O)CN1C(=O)/C(=C/c2ccc(SCc3ccccc3)o2)SC1=S`, the concentration at half-maximal activity (AC50) under setting [2] was 35.5 µM [rising, single point].

For the compound `CC(=O)Nc1cc(C(=O)OCc2cccc([N+](=O)[O-])c2)ccc1C`, the half-maximal activity concentration (AC50) was 1.12 µM [rising, full curve, poor fit] under setting [1] and 3.16 µM [rising, partial curve, poor fit] under setting [2].

`Cc1[nH]c(=O)[nH]c(=O)c1S(=O)(=O)N(CC(C)C)CC(C)C`: the half-maximal activity concentration (AC50) under setting [2] was 2.51 µM [falling, partial curve].

With `CN(/C=C/c1c([N+](=O)[O-])c(=O)n(C)c(=O)n1C)c1ccccc1`, under setting [2], the concentration at half-maximal activity (AC50) was 35.5 µM [falling, single point].

Turning to `Cc1cc(C)c2c(CC(=O)NCCc3ccccc3)coc2c1`, the AC50 under setting [2] was 4.47 µM [falling, partial curve].

Regarding `CCc1ccccc1N1C(=O)C2CC=CCC2C1=O` (stereo unspecified), the AC50 under setting [2] is 0.0447 µM [falling, full curve, poor fit].

On to `COc1ccccc1OC[C@H](O)CO`, for which the AC50 is 3.16 µM [falling, partial curve, poor fit] under setting [1] and 1.78 µM [falling, partial curve, poor fit] under setting [2].

For the compound `Cc1ccc(OCc2nc(-c3ccccn3)no2)c(Br)c1`, under setting [1], the concentration at half-maximal activity (AC50) is 12.6 µM [rising, single point].

`CC(=O)c1c(C)[nH]c(C(=O)NCc2ccccc2)c1C`: the AC50 under setting [2] is 0.891 µM [falling, full curve, poor fit].

Consider `C=CCn1c(NCCO)nc2c1c(=O)n(C)c(=O)n2C`, for which the AC50 under setting [2] was 35.5 µM [rising, single point].

In the case of `Cc1onc(-c2ccccc2)c1C(=O)NC(=S)NNC(=O)c1cccnc1`, under setting [2], the concentration at half-maximal activity (AC50) was 31.6 µM [rising, single point].

For the compound `Cc1cc(C)n(-c2nnc(SCC(=O)NC3CCCC3)c3ccccc23)n1`, under setting [2], the AC50 is 35.5 µM [rising, single point].

With `COc1ccc(-n2c(SCc3ccccc3F)nc3c([nH]c4ccccc43)c2=O)cc1OC`, the AC50 was 7.08 µM [falling, full curve] under setting [1] and 5.01 µM [falling, full curve] under setting [2].

For `Cc1ccccc1NC(=O)C(C)c1ccc(-c2ccccc2)c(F)c1` (stereo unspecified), the AC50 under setting [2] is 31.6 µM [rising, single point].

With `Cc1cc(/C=C(/C#N)C(=O)O)c(C)n1CCC(C)C`, the half-maximal activity concentration (AC50) reads like this: under setting [1], 11.2 µM [rising, partial curve]; under setting [2], 11.2 µM [rising, single point].

On to `CCOc1cc(Br)c(C=O)cc1OCC`, for which the concentration at half-maximal activity (AC50) under setting [1] was 35.5 µM [falling, partial curve, poor fit].

`COCCNC(=O)CSc1nc2c(n1-c1ccccc1)CCCC2`: the AC50 under setting [1] is 14.1 µM [rising, partial curve].

As for `O=[N+]([O-])c1cccc(/C=C/C=N/Nc2nc(N3CCCCC3)nc(N3CCCCC3)n2)c1`, the half-maximal activity concentration (AC50) under setting [2] is 0.0141 µM [falling, full curve, poor fit].

Turning to `Cc1cccc(C(=O)NC(=S)Nc2ccc(N3CCOCC3)cc2)c1`, the concentration at half-maximal activity (AC50) under setting [1] was 28.2 µM [rising, single point] and the AC50 under setting [2] is 35.5 µM [rising, single point].

Regarding `COc1ccc(C(=O)N2CCOC2CNC(=O)C(=O)NCc2ccc(Cl)cc2)cc1` (stereo unspecified), the half-maximal activity concentration (AC50) runs as follows: under setting [1], 0.141 µM [rising, partial curve]; under setting [2], 6.31 µM [rising, partial curve].

In the case of `O=C(COc1ccc(C(=O)c2ccc(F)cc2)cc1)NCc1ccc(F)cc1`, the half-maximal activity concentration (AC50) under setting [2] was 0.794 µM [rising, full curve, poor fit].

In the case of `O=C1Nc2ccc(I)cc2/C1=C/c1cc(Br)c(O)c(Br)c1`, the AC50 was 12.6 µM [falling, partial curve] under setting [1] and 11.2 µM [falling, partial curve] under setting [2].

For the compound `O=C(COC(=O)c1ccccc1C(=O)c1ccccc1)Nc1cccc([N+](=O)[O-])c1`, the AC50 under setting [1] is 7.94 µM [rising, partial curve] and the concentration at half-maximal activity (AC50) under setting [2] was 11.2 µM [rising, partial curve].

On to `COc1ccc(C(=O)C(CN2CCOCC2)c2ccccc2)cc1F` (stereo unspecified), for which, under setting [2], the concentration at half-maximal activity (AC50) was 35.5 µM [falling, single point].

Turning to `O=C1c2ccccc2NC(c2c(Cl)cccc2Cl)N1Cc1ccccc1` (stereo unspecified), the AC50 under setting [2] was 22.4 µM [falling, partial curve, poor fit].

For the compound `Cc1ccc(C(=O)CSc2ccc(-c3ccccc3)nn2)cc1`, the AC50 under setting [2] is 15.8 µM [rising, partial curve, poor fit].

As to `Cc1nnc(SCC(=O)N/N=C/c2cn(-c3ccccc3)nc2-c2ccccc2)n1-c1ccccc1`, the concentration at half-maximal activity (AC50) was 0.0251 µM [falling, partial curve] under setting [1] and 0.0355 µM [falling, single point] under setting [2].

For `Cc1nc2ccccc2c2oc(C(=O)NCC3COc4ccccc4O3)cc12` (stereo unspecified), under setting [2], the AC50 was 6.31 µM [rising, partial curve].

In the case of `Cn1nc(CC(=O)Nc2ncc(Br)s2)c2ccccc2c1=O`, the AC50 reads like this: under setting [1], 3.16 µM [rising, full curve]; under setting [2], 7.08 µM [rising, full curve].

As for `NC(=O)c1ccccc1NC(=O)CN1c2ccccc2S(=O)(=O)c2ccccc21`, under setting [2], the AC50 is 5.62 µM [rising, single point].

`CCOC(=O)C(C)Sc1ncc(-c2ccc(Cl)cc2)cn1` (stereo unspecified): the AC50 is 0.0251 µM [rising, full curve, poor fit] under setting [1] and 0.0178 µM [rising, full curve, poor fit] under setting [2].

Regarding `Cc1cc(C(=O)OCC(=O)N2CCOCC2)ccc1[N+](=O)[O-]`, under setting [2], the AC50 was 0.0631 µM [falling, full curve, poor fit].

Regarding `FC(F)(F)c1ccc2c(c1)n(Cc1ccccc1)c1[n+]2CCCCC1`, under setting [1], the concentration at half-maximal activity (AC50) was 0.282 µM [rising, full curve, poor fit].

Consider `CC(C)C(=O)Nc1nc(-c2ccc([N+](=O)[O-])cc2)cs1`, for which, under setting [2], the AC50 is 1.26 µM [falling, full curve, poor fit].

On to `CCOc1ccc(OCC)c(NC(=O)c2cnc(SC)nc2-c2ccccc2)c1`, for which the AC50 under setting [2] is 11.2 µM [rising, partial curve].

As to `Cc1ccc(C)c(NC(=O)CSc2nc3c([nH]c4ccccc43)c(=O)n2-c2ccc(F)cc2)c1`, the half-maximal activity concentration (AC50) under setting [2] is 15.8 µM [falling, single point].

In the case of `COc1ccc2c(c1)C=CC1(O2)N(CCO)c2ccccc2C1(C)C` (stereo unspecified), the AC50 under setting [2] was 3.16 µM [falling, full curve].

With `O=C(Oc1cccc(Nc2ncnc3ccccc23)c1)c1ccccc1Cl`, the half-maximal activity concentration (AC50) under setting [2] was 11.2 µM [rising, partial curve].

In the case of `Cc1sc2nc(C3CC3)nc(SCC(=O)N3c4ccccc4CC3C)c2c1C` (stereo unspecified), under setting [2], the concentration at half-maximal activity (AC50) is 4.47 µM [rising, single point].

Consider `Cn1nc(-c2ccc(Cl)cc2)c2cc(C(=O)NCCCN3CCOCC3)sc21`, for which, under setting [2], the AC50 was 35.5 µM [rising, single point].

Consider `O=C(c1c(O)c2ccccc2oc1=O)C1CCC1`, for which the AC50 under setting [2] was 12.6 µM [rising, single point].

As for `CC(C)c1cc(C(=O)N2CCCC(CCC(=O)NCc3ccccc3F)C2)n(C)n1` (stereo unspecified), the AC50 under setting [2] is 6.31 µM [falling, partial curve, poor fit].

`Cc1ccc(C(=O)C(c2ccccc2)N2Cc3ccccc3C2=N)cc1` (stereo unspecified): the half-maximal activity concentration (AC50) under setting [1] is 35.5 µM [falling, single point] and the AC50 under setting [2] was 5.01 µM [rising, single point].

In the case of `COCCSc1nnc(NC(=O)C2CC(=O)N(c3ccc(Cl)cc3)C2)s1` (stereo unspecified), the concentration at half-maximal activity (AC50) was 4.47 µM [falling, partial curve] under setting [1] and 0.355 µM [falling, partial curve] under setting [2].

For `O=C1CSC2(CCN(CCCN3c4ccccc4Sc4ccc(Cl)cc43)CC2)N1`, the AC50 runs as follows: under setting [1], 17.8 µM [rising, single point]; under setting [2], 10 µM [falling, partial curve].

On to `CCCC(=O)OCCNc1cc(SCc2ccco2)c2nonc2c1[N+](=O)[O-]`, for which the AC50 under setting [1] is 20 µM [falling, partial curve] and the AC50 under setting [2] is 17.8 µM [falling, partial curve].

For `COc1ccc(C(=O)N/N=C/c2c(CO)cnc(C)c2O)cc1`, the AC50 under setting [1] was 31.6 µM [falling, single point].
